Test results reported in publication PMC3196545.
Results are given in words; binding and its absence hold for the method and conditions named. Some entries that bind do so weakly or less than the wild type. Tags and fused reporters may be left off the sequences shown.

Target: T1, PEDF^41–121 fused to the DNA binding domain of LexA (pEG202-PEDF^41–121) (human) (UniProt P36955)
T1 sequence: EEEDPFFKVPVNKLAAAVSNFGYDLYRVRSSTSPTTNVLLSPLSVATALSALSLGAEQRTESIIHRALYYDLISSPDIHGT
Test: two-hybrid; LexA DNA binding domain bait fusion and B42 activation domain target fusion library (human fetal brain cDNA in pJG4-5), yeast EGY48, LEU2 and LacZ reporters

binding: binds
B1: Transportin-SR2 C-terminal region (amino acids 827 to 923), library clone H in pJG4-5 (domain or fragment, UniProt Q9Y5L0-2 827-923)
chain: NQLGQQLVSQLLHTCCFCLPPYTLPDVAEVLWEIMQVDRPTFCRWLENSLKGLPKETTVGAVTVTHKQLTDFHKQVTSAEECKQVCWALRDFTRLFR
